PubChem BioAssay AID1224826 | NIAID, 2016

Purpose: 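Regulators of Tlr4 signalling leading to Tnf-alpha expression in macrophages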 (primary screen)
Cells: RAW264.7 G9 macrophages from mouse bearing reporters for p65 (GFP) and the Tnf promoter (mCherry)
Reagents: siRNA pool against mouse genes, 100 nM
Time to read-out: 16 h of LPS stimulation, after 2 days of siRNA transfection
Challenge: bacterial lipopolysaccharide (Salmonella minnesota R595), 10 ng/ml
Measured: 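Nuclear mCherry signal of the Tnf promoter reporter measured by imaging after background removal, scaled to each plate median and turned into robust z-scores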
Scale: Tnf reporter robust z-score: higher = stronger Tnf promoter reporter signal after LPS; Tnf reporter intensity: higher = stronger Tnf promoter reporter signal
Call rule: 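a well counts as active at a score of -1.3 or below (Tlr4 knock-down control median) or above 3 (raised signal); controls and wells holding fewer than 50 cells are excluded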
Meaning of the calls: active = Tnf reporter clearly lowered or raised; inactive = no clear change in Tnf reporter
The whole screen tested about 17,000 reagents; below is a random part of them. About 1,110 of all reagents (6.6%) count as active. 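Active means lowered or raised reporter signal; replicate intensities are raw and not normalised per plate.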 Entries without a mark were called inactive. The numbers tell different reagents against one gene apart.

Target gene	reagent no.	Tnf reporter robust z-score	fewer than 50 cells in well	Tnf reporter intensity, replicate 1	Tnf reporter intensity, replicate 2
Vasp (GeneID 22323)	1	0.72	enough cells in well	148	110
Emilin2 (GeneID 246707)	1	2.69	enough cells in well	419	179
Pkp3 (GeneID 56460)	1	0.15	enough cells in well	235	222
Dusp22 (GeneID 105352)	1	-0.68	enough cells in well	168	73.3
Tmco5a (GeneID 67356)	1		fewer than 50 cells per well; well left out of calls	237	52.4
Kctd15 (GeneID 233107)	1	-0.54	enough cells in well	188	86.1
Adam30 (GeneID 71078)	1	-0.04	enough cells in well	173	160
Hoxd10 (GeneID 15430)	1	-0.08	enough cells in well	209	203
Rbm34 (GeneID 52202)	1	1.66	enough cells in well	293	253
Tacr3 (GeneID 21338)	1	-0.4	enough cells in well	240	74.7
Fbxw4 (GeneID 30838)	1	0.5	enough cells in well	233	307
Gm9517 (GeneID 67107)	1		fewer than 50 cells per well; well left out of calls	143	29.9
E230012M21	1	2.65	enough cells in well	379	201
Osgep (GeneID 66246)	1	2.49	enough cells in well	176	335
Cpn1 (GeneID 93721)	1	0.26	enough cells in well	259	217
H13 (GeneID 14950)	1	0.04	enough cells in well	320	118
Mtmr4 (GeneID 170749)	1	-0.66	enough cells in well	199	164
Amacr (GeneID 17117)	1	1.26	enough cells in well	260	218
Tcl1b2 (GeneID 27381)	1		fewer than 50 cells per well; well left out of calls	0	0
Pygl (GeneID 110095)	1	0.61	enough cells in well	328	277
Bach2 (GeneID 12014)	1	2.58	enough cells in well	264	312
Timm17b (GeneID 21855)	1	-0.15	enough cells in well	112	11.3
Tmem198b (GeneID 73827)	1	2.35	enough cells in well	402	157
Or5ac24 (GeneID 258993)	1	-0.03	enough cells in well	141	146
H2ap (GeneID 67334)	1	2.92	enough cells in well	416	164
Csn3 (GeneID 12994)	1	0.19	enough cells in well	188	196
Fndc3b (GeneID 72007)	1		fewer than 50 cells per well; well left out of calls	184	37.4
Strn (GeneID 268980)	1	0.24	enough cells in well	123	99.9
Ccdc14 (GeneID 239839)	1	2.46	enough cells in well	493	223
Carm1 (GeneID 59035)	1	0.63	enough cells in well	178	243
Mybbp1a (GeneID 18432)	1	-1.1	enough cells in well	164	130
Mettl18 (GeneID 69962)	1	-0.52	enough cells in well	125	63.2
Tnfaip2 (GeneID 21928)	1	-0.42	enough cells in well	193	120
Peg12 (GeneID 27412)	1	-0.52	enough cells in well	124	87
Cog8 (GeneID 97484)	1	-0.46	enough cells in well	173	131
5330431K02Rik (GeneID 68189)	1		fewer than 50 cells per well; well left out of calls	115	196
Kcnk18 (GeneID 332396)	1	2.87	enough cells in well	495	315
4930599N23Rik (GeneID 75379)	1		fewer than 50 cells per well; well left out of calls	335	51.5
Serpind1 (GeneID 15160)	1	-0.67	enough cells in well	227	157
Tat (GeneID 234724)	1	1	enough cells in well	381	135
Tcim (GeneID 69068)	1	0.21	enough cells in well	229	59.9
Scd2 (GeneID 20250)	1	-0.7	enough cells in well	103	98.9
Habp4 (GeneID 56541)	1	0.79	enough cells in well	410	141
C4a (GeneID 625018)	1	1.8	enough cells in well	358	225
Pik3r4 (GeneID 75669)	1	-0.26	enough cells in well	206	122
Rwdd3 (GeneID 66568)	1	1.42	enough cells in well	284	130
Rwdd3 (GeneID 66568)	2	-1.64 (active)	enough cells in well	70.7	43.4
Klf8 (GeneID 245671)	1	0.46	enough cells in well	176	190
Mllt11 (GeneID 56772)	1	0.94	enough cells in well	228	216
Robo1 (GeneID 19876)	1	-0.94	enough cells in well	249	115
Bkgd (GeneID 70984)	1		fewer than 50 cells per well; well left out of calls	116	24
Rnf114 (GeneID 81018)	1	-1.86 (active)	enough cells in well	61.6	44.1
Bbs4 (GeneID 102774)	1	1.42	enough cells in well	169	302
Mapt (GeneID 17762)	1	-0.04	enough cells in well	255	207
Mtfr1l (GeneID 76824)	1	0.54	enough cells in well	292	64.3
Tmem229a (GeneID 319832)	1	0.53	enough cells in well	205	177
Ly6g2 (GeneID 223631)	1	-0.46	enough cells in well	154	198
9530080O11Rik (GeneID 319247)	1	2.06	enough cells in well	271	280

Part of the list above, set out differently.
{"Target gene": "Strn (GeneID 268980)", "reagent no.": 1, "Tnf reporter robust z-score": 0.24, "fewer than 50 cells in well": "enough cells in well", "Tnf reporter intensity, replicate 1": 123, "Tnf reporter intensity, replicate 2": 99.9}
{"Target gene": "Ccdc14 (GeneID 239839)", "reagent no.": 1, "Tnf reporter robust z-score": 2.46, "fewer than 50 cells in well": "enough cells in well", "Tnf reporter intensity, replicate 1": 493, "Tnf reporter intensity, replicate 2": 223}
{"Target gene": "Carm1 (GeneID 59035)", "reagent no.": 1, "Tnf reporter robust z-score": 0.63, "fewer than 50 cells in well": "enough cells in well", "Tnf reporter intensity, replicate 1": 178, "Tnf reporter intensity, replicate 2": 243}
{"Target gene": "Mybbp1a (GeneID 18432)", "reagent no.": 1, "Tnf reporter robust z-score": -1.1, "fewer than 50 cells in well": "enough cells in well", "Tnf reporter intensity, replicate 1": 164, "Tnf reporter intensity, replicate 2": 130}
{"Target gene": "Mettl18 (GeneID 69962)", "reagent no.": 1, "Tnf reporter robust z-score": -0.52, "fewer than 50 cells in well": "enough cells in well", "Tnf reporter intensity, replicate 1": 125, "Tnf reporter intensity, replicate 2": 63.2}
{"Target gene": "Tnfaip2 (GeneID 21928)", "reagent no.": 1, "Tnf reporter robust z-score": -0.42, "fewer than 50 cells in well": "enough cells in well", "Tnf reporter intensity, replicate 1": 193, "Tnf reporter intensity, replicate 2": 120}
{"Target gene": "Peg12 (GeneID 27412)", "reagent no.": 1, "Tnf reporter robust z-score": -0.52, "fewer than 50 cells in well": "enough cells in well", "Tnf reporter intensity, replicate 1": 124, "Tnf reporter intensity, replicate 2": 87}
{"Target gene": "Cog8 (GeneID 97484)", "reagent no.": 1, "Tnf reporter robust z-score": -0.46, "fewer than 50 cells in well": "enough cells in well", "Tnf reporter intensity, replicate 1": 173, "Tnf reporter intensity, replicate 2": 131}
{"Target gene": "5330431K02Rik (GeneID 68189)", "reagent no.": 1, "fewer than 50 cells in well": "fewer than 50 cells per well; well left out of calls", "Tnf reporter intensity, replicate 1": 115, "Tnf reporter intensity, replicate 2": 196}
